Some results were stated once for a whole list of compounds, not compound by compound.
Tests used:
Assay type in all cases: in vivo
[1] = system: Plasmopara viticola; assay: Plasmopara test (grapevines) / protective; details: protective spray, 100 ppm of active ingredient, evaluated 6 days after inoculation
[2] = system: Phytophthora infestans; details: tomato, preventive spray, 500 ppm of active ingredient, evaluated 7 days after inoculation
[3] = system: Pythium; assay: Pythium test (cotton) / seed treatment; details: 50 g of active ingredient/100 kg seed, 7 days at 20° C.

| SMILES | efficacy [1] [%] | efficacy [2] [%] | efficacy (emerged seedlings) [3] [%] |
| --- | --- | --- | --- |
| CCCCCC(=O)Nc1cccc(CON=C(c2cc(C)cc(F)c2)c2nnnn2C)n1 [Example 123] | ≥ 70 |  |  |
| Cc1ccc(C(=NOCc2cccc(NC(=O)CC(C)C)n2)c2nnnn2C)cc1F [Example 41] | ≥ 70 | ≥ 70 |  |
| CCCCCC(=O)Nc1ccnc(CON=C(c2ccc(C)c(C(F)(F)F)c2)c2nnnn2C)n1 [Example 36] |  | ≥ 70 |  |
| CCCCCC(=O)Nc1cccc(CON=C(c2ccc(C)c(C(F)(F)F)c2)c2nnnn2C)n1 [Example 89] | ≥ 70 |  |  |
| CCCCCC(=O)Nc1cccc(CON=C(c2ccc(Cl)c(C(F)(F)F)c2)c2nnnn2C)n1 [Example 77] | ≥ 70 | ≥ 70 |  |
| CCCCCOC(=O)Nc1cccc(CON=C(c2ccc(F)c(C)c2)c2nnnn2C)n1 [Example 94] | ≥ 70 | ≥ 70 | ≥ 70 |
| Cc1ccc(C(=NOCc2cccc(NC(=O)CC(C)C)n2)c2nnnn2C)cc1C(F)(F)F [Example 43] | ≥ 70 | ≥ 70 |  |
| CC(C)CC(=O)Nc1cccc(CON=C(c2ccc(Cl)c(C(F)(F)F)c2)c2nnnn2C)n1 [Example 70] | ≥ 70 | ≥ 70 |  |
| CCCCCC(=O)Nc1cccc(CON=C(c2cccc(C)c2F)c2nnnn2C)n1 [Example 103] | ≥ 70 | ≥ 70 |  |
| CCCCCOC(=O)Nc1cccc(CON=C(c2ccc(F)c(C(F)(F)F)c2)c2nnnn2C)n1 [Example 82] | ≥ 70 | ≥ 70 |  |
| CCCCCOC(=O)Nc1cccc(CON=C(c2ccc(C(F)(F)F)cc2F)c2nnnn2C)n1 (single isomer, unassigned) [Example 24] |  | ≥ 70 |  |
| CCCCCOC(=O)Nc1cccc(CON=C(c2cc(C)cc(F)c2)c2nnnn2C)n1 [Example 93] | ≥ 70 | ≥ 70 |  |
| CCCCCC(=O)Nc1cccc(CON=C(c2cccc(F)c2C)c2nnnn2C)n1 [Example 112] | ≥ 70 | ≥ 70 |  |
| Cc1c(F)cccc1C(=NOCc1cccc(NC(=O)CC(C)C)n1)c1nnnn1C [Example 73] | ≥ 70 | ≥ 70 |  |
| CCCCCOC(=O)Nc1cccc(CON=C(c2cccc(C(F)(F)F)c2F)c2nnnn2C)n1 [Example 25] |  | ≥ 70 |  |
| CCCCCC(=O)Nc1cccc(CON=C(c2ccc(F)c(C)c2)c2nnnn2C)n1 [Example 119] | ≥ 70 | ≥ 70 |  |

| SMILES | efficacy [1] [%] | efficacy [2] [%] | efficacy (emerged seedlings) [3] [%] |
| --- | --- | --- | --- |
| Cc1cc(C)cc(C(=NOCc2cccc(N)n2)c2nnnn2C)c1 [Example 125] |  | ≥ 70 |  |
| Cc1cc(C(=NOCc2cccc(NC(=O)CC(C)C)n2)c2nnnn2C)ccc1F [Example 37] | ≥ 70 | ≥ 70 |  |
| CCCCCC(=O)Nc1cccc(CON=C(c2cc(C)cc(F)c2)c2nnnn2C)n1 [Example 74] |  | ≥ 70 |  |
| CCCCCC(=O)Nc1cccc(CON=C(c2ccc(C)c(C(F)(F)F)c2)c2nnnn2C)n1 [Example 50] |  | ≥ 70 |  |
| CCCCCOC(=O)Nc1cccc(CON=C(c2ccc(C)c(F)c2)c2nnnn2C)n1 [Example 95] | ≥ 70 | ≥ 70 | ≥ 70 |
| CCCCCOC(=O)Nc1cccc(CON=C(c2ccc(C)c(C(F)(F)F)c2)c2nnnn2C)n1 [Example 78] | ≥ 70 | ≥ 70 |  |
| Cc1cccc(C(=NOCc2cccc(NC(=O)CC(C)C)n2)c2nnnn2C)c1F [Example 33] |  | ≥ 70 |  |
| CCCCCC(=O)Nc1cccc(CON=C(c2ccc(C)cc2F)c2nnnn2C)n1 [Example 115] | ≥ 70 | ≥ 70 |  |
| CCCCCC(=O)Nc1cccc(CON=C(c2ccc(C)c(F)c2)c2nnnn2C)n1 (single isomer, unassigned) [Example 102] | ≥ 70 | ≥ 70 |  |
| CCCCOC(=O)Nc1ccnc(CON=C(c2ccc(C)c(C(F)(F)F)c2)c2nnnn2C)n1 [Example 8, butyl(2-{[({(1-methyl-1H-tetrazol-5-yl)[4-methyl-3-(trifluoromethyl)phenyl]methylidene}amino)oxy]methyl}pyrimidin-4-yl)carbamate] |  | ≥ 70 |  |
| CCCCCC(=O)Nc1cccc(CON=C(c2cccc(C(F)(F)F)c2F)c2nnnn2C)n1 [Example 27, N-(6-{[({[2-fluoro-3-(trifluoromethyl)phenyl](1-methyl-1H-tetrazol-5-yl)methylidene}amino)oxy]methyl}pyridin-2-yl)hexanamide] |  | ≥ 70 |  |
| CCCCCOC(=O)Nc1ccnc(CON=C(c2ccc(C)c(C(F)(F)F)c2)c2nnnn2C)n1 [Example 122] | ≥ 70 | ≥ 70 |  |
| CCCCCC(=O)Nc1cccc(CON=C(c2ccc(F)c(C(F)(F)F)c2)c2nnnn2C)n1 [Example 104] | ≥ 70 | ≥ 70 |  |
| CC(C)CC(=O)Nc1cccc(CON=C(c2ccc(F)c(C(F)(F)F)c2)c2nnnn2C)n1 [Example 66] | ≥ 70 | ≥ 70 |  |
| CCCCCOC(=O)Nc1cccc(CON=C(c2cc(C)cc(C)c2)c2nnnn2C)n1 [Example 39] |  | ≥ 70 |  |
| CCCCCOC(=O)Nc1cccc(CON=C(c2ccc(Cl)c(C(F)(F)F)c2)c2nnnn2C)n1 [Example 88] | ≥ 70 | ≥ 70 |  |
